# Experimental data: patent US12358867B1, “Peptoid-based inhibitors of the protein arginine methyltransferase (PRMT) family” (University of North Florida Board of Trustees, priority 2020, dated 2025)
# Amino acid sequences for entries named in this document (tags omitted). Residues count along the entry.
# UniProt Q99873, 1-353 isoform Q99873-3, species assumed: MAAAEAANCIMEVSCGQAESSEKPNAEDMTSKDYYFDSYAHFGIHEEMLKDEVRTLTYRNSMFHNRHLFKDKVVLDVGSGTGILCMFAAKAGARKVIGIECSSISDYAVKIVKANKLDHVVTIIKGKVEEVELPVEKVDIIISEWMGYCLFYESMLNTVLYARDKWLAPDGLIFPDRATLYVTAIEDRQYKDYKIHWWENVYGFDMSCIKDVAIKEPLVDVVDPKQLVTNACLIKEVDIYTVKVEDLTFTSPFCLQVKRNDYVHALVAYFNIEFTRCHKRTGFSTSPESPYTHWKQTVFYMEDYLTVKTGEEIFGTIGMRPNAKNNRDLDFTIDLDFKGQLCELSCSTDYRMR
# Part of at least one peptide drawing is inferred or uncertain, most often the ends. Some entries share one result that the patent states for a list of compounds. Starred links: 1 amine or outer side, 2 acyl side, 3 side chain; linkers in the order of their positions; H or OH if unused. Non-standard residues stand in square brackets, D forms with d. Residues, ends and D or L forms follow the SMILES beside them. Gly(N-(CH2)3-guanidino) = N=C(N)NCCCNCC(=O)O; X1 = N=C(CCl)NCCCN(CC(=O)[*:2])[*:1]; Gly(N-CH2CH2OH) = O=C(O)CNCCO; Nleu = CC(C)CNCC(=O)O; Nlys = NCCCCNCC(=O)O; Sar = CNCC(=O)O
# Tests used:
# [1] = biological target: T1, PRMT1 (Homo sapiens, UniProt Q99873); assay: IC50 assay, MTase-Glo Methyltransferase assay; format: biochemical; details: histone H4 peptoids; SAM 40 μM; substrate AcH4-21 225 μM
# T1 construct: made in house
# Procedure: The efficacy of the peptoid inhibitors was probed using the MTase-Glo Methyltransferase assay kit. Various concentrations (0-1000 μM) of peptoid was incubated in assay buffer (20 mM Tris-HCl pH 8.0, 50 mM NaCl, 1 mM EDTA, 3 mM MgCl2, 0.1 mg/ml BSA, 1 mM DTT) at 37° C. for 10 min. Afterward, the inhibitor was allowed to interact with 200 nM PRMT1 for 15 min at 37° C. The reaction was catalyzed with 225 μM of AcH4-21 (a PRMT1 peptide substrate), continued for 15 min at 37° C., was quenched with the addition of 0.5% TFA (0.1% final concentration, 10 min, r.t.), followed by the addition of MTase-Glo Reagent to a final concentration of 1×. After 30-min incubation at r.t., MTase-Glo Detection Solution was added and incubated for 30 min at r.t. Luminescence signal was converted to product concentration using SAH standards (0-5 μM), following the above assay. Immediately afterwards, the luminescence signal was read with a BioTek Synergy 2 Multi-Mode Microplate Reader. IC50 values were determined by fitting the data to equation (2) using GraFit version 7.03. […]
# The IC50 value for the peptoid inhibitors were measured using the MTase-Glo Methyltransferase assay kit (Promega). […] Finally, the luminescence signal was measured using a BioTek Synergy 2 Multi-Mode Microplate Reader. […] The IC50 values were determined using equation 1 and fit to a curve using GraFit 7.03. […]
# [2] = test system: cancer cells; assay: Cell morphology after staining (markers of apoptosis); format: cell-based; details: treated vs untreated cells
# [3] = test system: MDA468 breast carcinoma cells; assay: Crystal violet cell viability assay; format: cell-based; details: for cell viability over time course: MDA468, 72 hour time course
# [4] = test system: Cyclin D and A in HCT116 cells; assay: Western blot Cyclin D and Cyclin A; format: cell-based
# [5] = test system: MDA468 cells; assay: Vacuoles and cell area, ImageJ analysis of stained slides; format: cell-based; details: for presence of vacuoles (autophagy): MDA468, 20 and 40 μM; for size of cells: MDA468, post treatment
# [6] = biological target: PRMT5; assay: IC50 assay, MTase-Glo Methyltransferase assay; format: biochemical; details: substrate AcH4-21 225 μM
# [7] = test system: LC3 in HepaRG cells; assay: LC3 western blot (autophagy); format: cell-based
# [8] = test system: Cyclin D and A in HepaRG cells; assay: Western blot Cyclin D and Cyclin A; format: cell-based
# [9] = test system: HCT116 cells; assay: Cell area, ImageJ analysis of stained slides; format: cell-based; details: HCT116, post treatment
# [10] = test system: HepaRG-FUCCI cells; assay: Fluorescent microscopy for cell cycle; format: cell-based; details: after 48 hours of treatment
# [11] = test system: LC3 in MDA468 cells; assay: LC3 western blot (autophagy); format: cell-based
# [12] = test system: HCT-116 colon carcinoma cells; assay: Crystal violet cell viability assay; format: cell-based; details: for cell viability over time course: HCT-116, 72 hour time course
# [13] = test system: HepaRG cells; assay: Cell area, ImageJ analysis of stained slides; format: cell-based; details: post treatment
# [14] = test system: LC3 in HCT116 cells; assay: LC3 western blot (autophagy); format: cell-based
# [15] = test system: Cyclin D and A in MDA468 cells; assay: Western blot Cyclin D and Cyclin A; format: cell-based
# [16] = listed as unacetylated H4-16 warhead chloracetamidine peptoid
compound,measurement,setting,value
CC(C)CN(CC(=O)NCC(=O)N(CCCCN)CC(=O)NCC(N)=O)C(=O)CNC(=O)CN(CCCCN)C(=O)CNC(=O)CNC(=O)CN(CCCCN)C(=O)CNC(=O)CN(CCCNC(=N)N)C(=O)CNC(=O)CNCCO [Peptoid H4-13] (H-[Gly(N-CH2CH2OH)]G[Gly(N-(CH2)3-guanidino)]G[Nlys]GG[Nlys]G[Nleu]G[Nlys]G-NH2; C-terminus assumed),IC50,[1],898 ± 93.5 µM
CC(C)CN(CC(=O)NCC(=O)N(CCCCN)CC(=O)NCC(=O)NCC(=O)N(C)CC(=O)N(CCCCN)CC(N)=O)C(=O)CNC(=O)CN(CCCCN)C(=O)CNC(=O)CNC(=O)CN(CCCCN)C(=O)CNC(=O)CN(CCCNC(=N)CCl)C(=O)CNC(=O)CNCCO [Peptoid P2] (H-[Gly(N-CH2CH2OH)]G[X1]G[Nlys]GG[Nlys]G[Nleu]G[Nlys]GG[Sar][Nlys]-NH2),cell morphology (signs of apoptosis),[2],"membrane blebbing, rounding and presence of small vacuoles"
same,cell viability / proliferation,"[3]; MDA468, 0-40 μM, 48 hours",significant anti-proliferative affect in a dose-response manner
same,reduction of proliferation,"[3]; MDA468, 20 μM, 48 hours",55%
same,reduction of proliferation,"[3]; MDA468, 40 μM, 48 hours",75%
same,cell viability over time course,[3],dose and time-dependent decrease in cell viability
same,cell viability over time course,[3]; [16],reduces cancer cell viability in a dose and time dependent manner
same,Cyclin D and Cyclin A expression,[4],little change in Cyclin D or Cyclin A expression
same,presence of vacuoles (autophagy),[5],a large percentage of treated cells showed presence of vacuoles
same,presence of vacuoles (autophagy),[5]; [16],a large percentage of treated cells exhibit vacuoles
same,size of cells,[5],significant decrease in size of cells
same,size of cells,[5]; [16],significant decrease in size
same,IC50,[6],> 500 µM
same,activation of autophagy (LC3 western),[7],activation of autophagy
same,Cyclin D and Cyclin A expression,[8],inhibition of Cyclin D and A
same,size of cells,[9],significant decrease in size of cells
same,size of cells,[9]; [16],significant decrease in size
same,cells entering cell cycle,[10],Significant reduction of cells entering cell cycle
same,activation of autophagy (LC3 western),[11],activation of autophagy
same,cell viability / proliferation,"[12]; HCT-116, 0-40 μM, 48 hours",significant anti-proliferative affect in a dose-response manner
same,reduction of proliferation,"[12]; HCT-116, 20 μM, 48 hours",40%
same,cell viability over time course,[12],dose and time-dependent decrease in cell viability
same,cell viability over time course,[12]; [16],reduces cancer cell viability in a dose and time dependent manner
same,reduction of proliferation,"[12]; HCT-116, highest concentration (0-40 μM), 48 hours",60%
same,size of cells,[13],remained unchanged
same,size of cells,[13]; [16],no significant change in size
same,activation of autophagy (LC3 western),[14],activation of autophagy
same,Cyclin D and Cyclin A expression,[15],little change in Cyclin D or Cyclin A expression
